Test [1] concerns the target T1, NELF-D-3x-FLAG (Drosophila) (UniProt Q24134).
T1 sequence: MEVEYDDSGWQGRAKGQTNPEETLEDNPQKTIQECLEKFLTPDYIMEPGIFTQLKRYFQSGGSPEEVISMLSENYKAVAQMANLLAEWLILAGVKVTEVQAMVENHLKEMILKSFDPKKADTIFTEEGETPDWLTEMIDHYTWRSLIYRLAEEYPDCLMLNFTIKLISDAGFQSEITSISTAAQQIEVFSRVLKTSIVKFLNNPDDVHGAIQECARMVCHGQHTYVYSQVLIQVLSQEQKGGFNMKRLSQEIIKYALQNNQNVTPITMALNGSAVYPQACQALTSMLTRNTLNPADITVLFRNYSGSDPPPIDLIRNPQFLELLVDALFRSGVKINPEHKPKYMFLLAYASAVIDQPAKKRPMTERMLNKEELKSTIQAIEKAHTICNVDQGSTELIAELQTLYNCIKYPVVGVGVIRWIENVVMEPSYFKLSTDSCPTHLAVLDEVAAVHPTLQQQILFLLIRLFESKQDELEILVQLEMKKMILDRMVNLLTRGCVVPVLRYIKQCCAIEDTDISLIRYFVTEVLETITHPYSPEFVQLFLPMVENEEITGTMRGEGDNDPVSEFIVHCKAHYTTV
The experiment in a line: tandem affinity co-purification; four NELF subunits co-expressed in Sf9; Ni-NTA (His10-NELF-E), then anti-FLAG resin (NELF-D-3x-FLAG); washes up to 500 mM NaCl, 250 mM KCl and 0.4 M KCl.

Protein sequences, listed by entry. Tags and fused reporters are not part of them.
UniProt Q9Y113: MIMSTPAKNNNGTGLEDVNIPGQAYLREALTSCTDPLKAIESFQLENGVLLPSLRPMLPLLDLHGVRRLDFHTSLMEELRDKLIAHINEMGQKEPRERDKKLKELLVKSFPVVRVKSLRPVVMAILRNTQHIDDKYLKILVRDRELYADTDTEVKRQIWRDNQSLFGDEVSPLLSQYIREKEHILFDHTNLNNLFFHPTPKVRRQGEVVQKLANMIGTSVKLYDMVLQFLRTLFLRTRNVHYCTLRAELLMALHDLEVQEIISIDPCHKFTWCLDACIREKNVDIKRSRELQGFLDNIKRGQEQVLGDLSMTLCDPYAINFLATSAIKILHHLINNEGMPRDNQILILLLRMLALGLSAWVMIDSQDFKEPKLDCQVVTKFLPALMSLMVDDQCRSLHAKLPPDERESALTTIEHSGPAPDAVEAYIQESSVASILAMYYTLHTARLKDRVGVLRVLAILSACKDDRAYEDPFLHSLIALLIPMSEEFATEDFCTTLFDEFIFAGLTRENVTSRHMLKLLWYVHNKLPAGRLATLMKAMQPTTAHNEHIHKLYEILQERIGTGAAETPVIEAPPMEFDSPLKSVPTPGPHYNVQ

Test [2] deals with T2, His10-NELF-E (Drosophila) (UniProt P92204).
T2 sequence: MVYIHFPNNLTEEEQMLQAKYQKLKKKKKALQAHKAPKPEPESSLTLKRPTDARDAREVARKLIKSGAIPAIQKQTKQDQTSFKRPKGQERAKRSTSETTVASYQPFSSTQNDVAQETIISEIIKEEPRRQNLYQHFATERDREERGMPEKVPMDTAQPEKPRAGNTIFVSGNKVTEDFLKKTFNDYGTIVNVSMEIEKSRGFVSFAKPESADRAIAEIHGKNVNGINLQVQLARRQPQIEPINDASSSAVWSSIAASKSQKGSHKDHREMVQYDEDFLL
The description is as above.

No constants are given. Whether binding was seen depends on the method and setting. Some entries that bind do so weakly or less than the wild type. Sequences can lack the tags named with a protein.

On to NELF-B (from UniProt Q9Y113 1-594), for which the binding result in test [1] and in test [2] was “binds” throughout.
